Results are given in words; binding and its absence hold for the method and conditions named. A result given as binding can be weak or reduced; the word gives no strength. Tags and fused reporters may be left off the sequences shown.
Target: GST-Ubx^N51A (Drosophila)
Test: pull-down; GST or GST-Ubx fusion proteins in equal amounts with His-purified proteins; affinity buffer (20 mM HEPES, 10 uM ZnCl2, 0.1% Triton, 2 mM EDTA) with NaCl, 1 mM DTT, 0.1 mM PMSF; 2 h at 4 °C; western blot; both purified

| binding | Binder |
| --- | --- |
| binds | V5-Tin, His-purified (protein, UniProt P22711 1-416) MLQHHQQQAQSGGYYDHYTQSPSPGSLTNADALNTTPFSVKDILNMVNQTEAYEGSYGHIDGAATASALFAAGEYQNPHQYLNHQQHQQSELPIPQQQLHHQHLDDGATTSSSLSPLLPPPPHQLYGGYQDYGMPAHMFQHHHGHPHQSFQHSASAYNMSASQFYAGASATAYQTPATYNYNYAGSGEVYGGATPSAVGIKSEYIPTPYVTPSPTLDLNSSAEVDSLQAPTQKLCVNPLSQRLMETASNSSSLRSIYGSDEGAKKKDNSQVTSSRSELRKNSISGNSNPGSNSGSTKPRMKRKPRVLFSQAQVLELECRFRLKKYLTGAEREIIAQKLNLSATQVKIWFQNRRYKSKRGDIDCEGIAKHLKLKSEPLDSPTSLPPPIPNHVMWPPTMQQSQQQQQHHAQQQQMQHM |
| binds | myc-Exd, His-purified (protein, UniProt P40427 1-376) MEDPNRMLAHTGGMMAPQGYGLSGQDDGQNAGSENEVRKQKDIGEILQQIMSISEQSLDEAQARKHTLNCHRMKPALFSVLCEIKEKTVLSIRNTQEEEPPDPQLMRLDNMLIAEGVAGPEKGGGGAAAASAAAASQGGSLSIDGADNAIEHSDYRAKLAQIRQIYHQELEKYEQACNEFTTHVMNLLREQSRTRPITPKEIERMVQIIHKKFSSIQMQLKQSTCEAVMILRSRFLDARRKRRNFSKQASEILNEYFYSHLSNPYPSEEAKEELARKCGITVSQVSNWFGNKRIRYKKNIGKAQEEANLYAAKKAAGASPYSMAGPPSGTTTPMMSPAPPQDSMGYPMGSGGYDQQQPYDNSMGGYDPNLHQDLSP |
